Assay results as given in publication PMC10812545, “The Binding of HSPA8 and Mitochondrial ALDH2 Mediates Oxygen-Glucose Deprivation-Induced Fibroblast Senescence” (Antioxidants, 2023).
Results are given in words; binding and its absence hold for the method and conditions named. In cells and extracts the contact can be indirect. Here binding means that the protein was enriched with, or labelled near, the bait; the list need not be complete.

T1: Aldehyde dehydrogenase 2 (ALDH2) (mouse (endogenous in NIH3T3)) (UniProt P47738)
T1 sequence: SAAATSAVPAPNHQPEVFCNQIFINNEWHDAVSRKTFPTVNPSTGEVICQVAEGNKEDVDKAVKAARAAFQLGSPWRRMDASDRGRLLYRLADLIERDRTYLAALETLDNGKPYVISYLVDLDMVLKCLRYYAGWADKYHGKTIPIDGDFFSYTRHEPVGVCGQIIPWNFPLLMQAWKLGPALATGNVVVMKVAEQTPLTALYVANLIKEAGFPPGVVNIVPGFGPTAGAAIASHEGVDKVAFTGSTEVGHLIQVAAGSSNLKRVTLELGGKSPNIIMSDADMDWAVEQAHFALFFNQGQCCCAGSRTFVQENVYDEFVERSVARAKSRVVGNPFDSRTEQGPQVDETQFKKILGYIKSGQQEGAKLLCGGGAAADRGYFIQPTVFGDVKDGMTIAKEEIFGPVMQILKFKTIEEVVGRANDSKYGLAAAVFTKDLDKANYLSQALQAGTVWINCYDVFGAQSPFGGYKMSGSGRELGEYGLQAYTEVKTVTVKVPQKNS


Target: T1, Aldehyde dehydrogenase 2 (ALDH2) (mouse (endogenous in NIH3T3))
Assay: affinity purification with mass spectrometry; NIH3T3 cells after OGD for 4 h; lysate immunoprecipitated with anti-ALDH2 antibody; LC-MS/MS of the immunoprecipitate

Molecule	binding
Impdh2 (from UniProt P24547 1-514)	binds
Hnmph1 (protein, UniProt O35737 1-449) MMLGAEGGEGFVVKVRGLPWSCSADEVQRFFSDCKIQNGAQGIRFIYTREGRPSGEAFVELESEDEVKLALKKDRETMGHRYVEVFKSNNVEMDWVLKHTGPNSPDTANDGFVRLRGLPFGCSKEEIVQFFSGLEIVPNGITLPVDFQGRSTGEAFVQFASQEIAEKALKKHKERIGHRYIEIFKSSRAEVRTHYDPPRKLMAMQRPGPYDRPGAGRGYNSIGRGAGFERMRRGAYGGGYGGYDDYNGYNDGYGFGSDRFGRDLNYCFSGMSDHRYGDGGSTFQSTTGHCVHMRGLPYRATENDIYNFFSPLNPVRVHIEIGPDGRVTGEADVEFATHEDAVAAMSKDKANMQHRYVELFLNSTAGASGGAYEHRYVELFLNSTAGASGGAYGSQMMGGMGLSNQSSYGGPASQQLSGGYGGGYGGQSSMSGYDQVLQENSSDFQSNIA	binds
